Experiment: Metabolomics demographic study of plasma from 270 healthy volunteers of various ages (Table 11)
Format: in vivo, human
Settings: not given

For `Cn1c(=O)c2c(ncn2C)n(C)c1=O` [Caffeine], the “change of plasma level with age” value was “increase with age”.
In the case of `Cn1c(=O)[nH]c2ncn(C)c2c1=O` [Paraxanthine, 1-7-dimethylxanthine], the “change of plasma level with age” value was “increase with age”.

Experiment: Disease progression: plasma of ALS subjects, matched-pairs T-test month 1 vs month 12 (Table 18)
Format: in vivo, human
Settings: mean plasma level, month 1 vs month 12 after screening; positive = increase as disease progressed; 37 ALS patients

In order of rising “% Change with disease progression” value:
1. C[N+](C)(C)CCOP(=O)([O-])OC[C@H](O)CO [L-alpha-glycerophosphorylcholine]  −43%
2. Cn1c(=O)c2c(ncn2C)n(C)c1=O [Caffeine]  −36%
3. Cn1c(=O)[nH]c2ncn(C)c2c1=O [Paraxanthine, 1-7-dimethylxanthine]  −27%
4. O=C(O)C(O)CO (centres unmarked) [glyceric acid]  −16%
5. O[C@H]1[C@H](O)[C@@H](O)[C@H](O)[C@@H](O)[C@H]1O [Inositol]  −10%
6. O=C(O)C(=O)[C@@H](O)[C@H](O)[C@@H](O)CO [2-keto-L-gulonic acid]  −8%
7. N[C@@H](CCCCN[C@@H](CCC(=O)O)C(=O)O)C(=O)O [Saccharopine]  −7%
8. COC(=O)Cc1c[nH]c2ccccc12 [methyl-indole-3-acetate]  −6%
9. NC(CCS)C(=O)O (racemic) [DL-homocysteine]  −5%
10. N[C@@H](Cc1c[nH]c2ccccc12)C(=O)O [Tryptophan]  −5%
11. O=C(O)CO [hydroxyacetic acid]  −5%
12. CCCCC/C=C\C/C=C\C/C=C\C/C=C\CCCC(=O)O [arachidonic acid]  −5%
13. O=C(O)CC(O)(CC(=O)O)C(=O)O [citric acid]  −3%
14. O=P(O)(O)OC[C@H](O)CO [sn-Glycerol-3-phosphate]  −2%
15. C=CC1=C(C)/C(=C/C2=NC(=C\c3[nH]c(/C=C4\NC(=O)C(C)=C4C=C)c(C)c3CCC(=O)O)/C(CCC(=O)O)=C2C)NC1=O [Biliverdin]  1%
16. NC(N)=O [Urea]  1%
17. C[N+](C)(C)CC(O)CC(=O)[O-] (centres unmarked) [Carnitine]  1%
18. O=C(O)c1ccccc1 [benzoic acid]  2%
19. O=C(O)C(=O)CO [beta-hydroxypyruvic acid]  3%
20. OCC(O)CO [Glycerol]  12%
21. OC[C@H]1OC(O)[C@@H](O)[C@@H](O)[C@@H]1O (some centres unmarked) [Mannose]  12%
22. C[C@@H](O)[C@H](N)C(=O)O [Threonine]  16%
23. CSCC[C@H](N)C(=O)O [Methionine]  48%

Experiment: Metabolomic profiling (GC-MS/LC-MS) of CSF samples, ALS subjects vs control subjects (Example 1; Tables 3, 4)
Format: in vivo, human
Settings: CSF; ALS mean as compared to control mean; T-tests of ALS vs. Controls

In order of falling “% change in ALS” value:
1. C[N+](C)(C)CC(O)CC(=O)[O-] (centres unmarked) [Carnitine]  55%
2. Cn1c(=O)c2c(ncn2C)n(C)c1=O [Caffeine]  −24%

Same assay, conditions: CSF; ALS mean as compared to the control mean

With `Cn1c(=O)c2c(ncn2C)n(C)c1=O` [Caffeine] the “% change in ALS” value was −24%.

Same assay, conditions: CSF; mean in ALS samples as compared to control samples

For `Cn1c(=O)c2c(ncn2C)n(C)c1=O` [Caffeine], the “Increase (+) or Decrease (−) in ALS” value was “−”.

Same assay, conditions: CSF; mean in ALS samples vs control samples; T-tests

With `Cn1c(=O)c2c(ncn2C)n(C)c1=O` [Caffeine] the “Increase (+) or Decrease (−) in ALS” value was “−”.
With `C[N+](C)(C)CC(O)CC(=O)[O-]` (centres unmarked) [Carnitine] the “Increase (+) or Decrease (−) in ALS” value was “+”.

Experiment: Metabolomic profiling of blood plasma, 62 ALS subjects vs 62 control subjects (Example 3; Tables 7, 8)
Format: in vivo, human
Settings: blood plasma; ALS mean level compared to control mean level; positive = increase in ALS

In order of falling “% change in ALS” value:
1. CCCCC/C=C\C/C=C\C/C=C\C/C=C\CCCC(=O)O [arachidonic acid]  47%
2. O=C(O)C(=O)CO [beta-hydroxypyruvic acid]  30%
3. NC(N)=O [Urea]  15%
4. COC(=O)Cc1c[nH]c2ccccc12 [methyl-indole-3-acetate]  14%
5. C[N+](C)(C)CC(O)CC(=O)[O-] (centres unmarked) [Carnitine]  9%
6. NC(CCS)C(=O)O (racemic) [DL-homocysteine]  8%
7. O=C(O)C(=O)[C@@H](O)[C@H](O)[C@@H](O)CO [2-keto-L-gulonic acid]  6%
8. C=CC1=C(C)/C(=C/C2=NC(=C\c3[nH]c(/C=C4\NC(=O)C(C)=C4C=C)c(C)c3CCC(=O)O)/C(CCC(=O)O)=C2C)NC1=O [Biliverdin]  4%
9. O[C@H]1[C@H](O)[C@@H](O)[C@H](O)[C@@H](O)[C@H]1O [Inositol]  2%
10. O=P(O)(O)OC[C@H](O)CO [sn-Glycerol-3-phosphate]  1%
11. C[N+](C)(C)CCOP(=O)([O-])OC[C@H](O)CO [L-alpha-glycerophosphorylcholine]  0%
12. N[C@@H](Cc1c[nH]c2ccccc12)C(=O)O [Tryptophan]  0%
13. OC[C@H]1OC(O)[C@@H](O)[C@@H](O)[C@@H]1O (some centres unmarked) [Mannose]  0%
14. O=C(O)CO [hydroxyacetic acid]  −2%
15. O=C(O)C(O)CO (centres unmarked) [glyceric acid]  −2%
16. O=C(O)c1ccccc1 [benzoic acid]  −4%
17. OCC(O)CO [Glycerol]  −7%
18. O=C(O)CC(O)(CC(=O)O)C(=O)O [citric acid]  −9%
19. CSCC[C@H](N)C(=O)O [Methionine]  −14%
20. C[C@@H](O)[C@H](N)C(=O)O [Threonine]  −16%
21. N[C@@H](CCCCN[C@@H](CCC(=O)O)C(=O)O)C(=O)O [Saccharopine]  −20%

Same assay, conditions: blood plasma; ALS mean level vs control mean level; 62 ALS vs 62 control subjects; analytical platform GC-MS

In order of rising “% change in ALS” value:
1. C[C@@H](O)[C@H](N)C(=O)O [Threonine]  −16%
2. O=C(O)CC(O)(CC(=O)O)C(=O)O [citric acid]  −9%
3. OCC(O)CO [Glycerol]  −7%
4. O=C(O)c1ccccc1 [benzoic acid]  −4%
5. O=C(O)CO [hydroxyacetic acid]  −2%
6. O=C(O)C(O)CO (centres unmarked) [glyceric acid]  −2%
7. O[C@H]1[C@H](O)[C@@H](O)[C@H](O)[C@@H](O)[C@H]1O [Inositol]  2%
8. O=C(O)C(=O)[C@@H](O)[C@H](O)[C@@H](O)CO [2-keto-L-gulonic acid]  6%
9. NC(N)=O [Urea]  15%
10. CCCCC/C=C\C/C=C\C/C=C\C/C=C\CCCC(=O)O [arachidonic acid]  47%

Same assay, conditions: blood plasma; ALS mean level vs control mean level; 62 ALS vs 62 control subjects; analytical platform LC-MS

In order of rising “% change in ALS” value:
1. N[C@@H](CCCCN[C@@H](CCC(=O)O)C(=O)O)C(=O)O [Saccharopine]  −20%
2. CSCC[C@H](N)C(=O)O [Methionine]  −14%
3. C=CC1=C(C)/C(=C/C2=NC(=C\c3[nH]c(/C=C4\NC(=O)C(C)=C4C=C)c(C)c3CCC(=O)O)/C(CCC(=O)O)=C2C)NC1=O [Biliverdin]  4%
4. NC(CCS)C(=O)O (racemic) [DL-homocysteine]  8%
5. C[N+](C)(C)CC(O)CC(=O)[O-] (centres unmarked) [Carnitine]  9%
6. COC(=O)Cc1c[nH]c2ccccc12 [methyl-indole-3-acetate]  14%
7. O=C(O)C(=O)CO [beta-hydroxypyruvic acid]  30%

Experiment: Disease progression: plasma of 40 ALS subjects, random coefficient regression analysis over time (Table 16)
Format: in vivo, human
Settings: common slope of plasma metabolite level over month (0, 1, 6, 12), positive = level increased over time, negative = decreased

In order of rising SLOPE:
1. Cn1c(=O)c2c(ncn2C)n(C)c1=O [Caffeine]  −0.030
2. C[N+](C)(C)CCOP(=O)([O-])OC[C@H](O)CO [L-alpha-glycerophosphorylcholine]  −0.028
3. Cn1c(=O)[nH]c2ncn(C)c2c1=O [Paraxanthine, 1-7-dimethylxanthine]  −0.025
4. C=CC1=C(C)/C(=C/C2=NC(=C\c3[nH]c(/C=C4\NC(=O)C(C)=C4C=C)c(C)c3CCC(=O)O)/C(CCC(=O)O)=C2C)NC1=O [Biliverdin]  −0.015
5. O=C(O)C(O)CO (centres unmarked) [glyceric acid]  −0.014
6. COC(=O)Cc1c[nH]c2ccccc12 [methyl-indole-3-acetate]  −0.009
7. C[N+](C)(C)CC(O)CC(=O)[O-] (centres unmarked) [Carnitine]  −0.007
8. CCCCC/C=C\C/C=C\C/C=C\C/C=C\CCCC(=O)O [arachidonic acid]  −0.006
9. O=C(O)C(=O)[C@@H](O)[C@H](O)[C@@H](O)CO [2-keto-L-gulonic acid]  −0.006
10. O=C(O)CC(O)(CC(=O)O)C(=O)O [citric acid]  −0.005
11. NC(CCS)C(=O)O (racemic) [DL-homocysteine]  −0.005
12. O[C@H]1[C@H](O)[C@@H](O)[C@H](O)[C@@H](O)[C@H]1O [Inositol]  −0.005
13. N[C@@H](Cc1c[nH]c2ccccc12)C(=O)O [Tryptophan]  −0.004
14. O=C(O)CO [hydroxyacetic acid]  −0.004
15. N[C@@H](CCCCN[C@@H](CCC(=O)O)C(=O)O)C(=O)O [Saccharopine]  −0.004
16. NC(N)=O [Urea]  −0.002
17. O=P(O)(O)OC[C@H](O)CO [sn-Glycerol-3-phosphate]  0.001
18. OCC(O)CO [Glycerol]  0.007
19. OC[C@H]1OC(O)[C@@H](O)[C@@H](O)[C@@H]1O (some centres unmarked) [Mannose]  0.009
20. O=C(O)C(=O)CO [beta-hydroxypyruvic acid]  0.010
21. O=C(O)c1ccccc1 [benzoic acid]  0.013
22. C[C@@H](O)[C@H](N)C(=O)O [Threonine]  0.017
23. CSCC[C@H](N)C(=O)O [Methionine]  0.046
